# Substitutions are numbered along the chain they refer to. These are yes or no findings as the source states them, for the method shown. Binding seen in cells or lysates may run through a third protein. Some results given as binding are weak or reduced against the parent protein; the word gives no strength.
# Protein sequences, listed by entry. Tags and fused reporters are not part of them.
# UniProt P62259: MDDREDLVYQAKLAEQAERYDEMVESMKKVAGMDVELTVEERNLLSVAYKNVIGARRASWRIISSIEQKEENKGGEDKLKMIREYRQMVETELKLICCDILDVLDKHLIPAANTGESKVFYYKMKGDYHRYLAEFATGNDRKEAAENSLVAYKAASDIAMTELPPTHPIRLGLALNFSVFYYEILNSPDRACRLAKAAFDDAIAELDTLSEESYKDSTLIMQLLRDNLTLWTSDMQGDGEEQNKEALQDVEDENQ
# UniProt P62261: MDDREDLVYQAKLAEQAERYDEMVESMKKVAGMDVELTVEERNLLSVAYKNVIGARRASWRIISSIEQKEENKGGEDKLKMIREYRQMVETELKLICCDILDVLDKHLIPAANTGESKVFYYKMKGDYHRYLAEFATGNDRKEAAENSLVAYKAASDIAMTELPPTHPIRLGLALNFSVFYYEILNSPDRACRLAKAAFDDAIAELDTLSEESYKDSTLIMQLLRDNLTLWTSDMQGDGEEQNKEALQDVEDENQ
# Experiments:
# [1] = biological target: T1, bEF^−GCAP2, bovine GCAP2(E80Q/E116Q/D158N), transgene product in mouse rods (bovine) (UniProt P51177); assay: co-IP; ^32Pi-labelled retinas kept in the dark or exposed to light for 5 min, solubilized in 1% Triton X100 with 4 mM EGTA, 2 mM EDTA, 2 mM NaF; GCAP2 precipitated with anti-GCAP2 mAb2235 on magnetic beads; blot for 14-3-3
# T1 sequence (chain, phosphorylated to high levels in vivo (Ser201)): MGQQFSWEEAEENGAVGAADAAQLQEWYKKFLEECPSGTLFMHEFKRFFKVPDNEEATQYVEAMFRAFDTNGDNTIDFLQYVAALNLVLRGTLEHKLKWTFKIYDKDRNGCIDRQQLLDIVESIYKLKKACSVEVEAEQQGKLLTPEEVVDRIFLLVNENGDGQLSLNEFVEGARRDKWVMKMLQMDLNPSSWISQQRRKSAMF
# [2] = biological target: T2, recombinant bEF^−GCAP2, mock-treated (unphosphorylated) (bovine) (UniProt P51177); assay: pull-down; phosphorylated or mock-treated recombinant GCAP2 cross-linked to magnetic beads; solubilized bovine retina (1/8 retina) in 10 mM HEPES pH 7.4, 135 mM NaCl, 1% Triton X-100, 4 mM EGTA, 2 mM EDTA; 1 h at room temperature; blot for 14-3-3pan and 14-3-3ε; only the target purified
# T2 sequence: T1 sequence (chain, phosphorylated to high levels in vivo (Ser201))
# [3] = biological target: T3, recombinant phosphorylated bGCAP2 (bovine) (UniProt P51177); assay: as above
# T3 sequence (chain, phosphorylated in vitro by PKG; Ser201 named as the site): T1 sequence (chain, phosphorylated to high levels in vivo (Ser201)) with Q80E, Q116E, N158D
# [4] = biological target: T4, recombinant phosphorylated bEF^−GCAP2 (bovine) (UniProt P51177); assay: as above
# T4 sequence (chain, phosphorylated in vitro by PKG; Ser201 named as the site): T1 sequence (chain, phosphorylated to high levels in vivo (Ser201))
substance,measurement,setting,value
14-3-3 protein ε (mouse) (from UniProt P62259 1-255),binding,[1],binds
14-3-3ε (bovine retina) (from UniProt P62261 1-255),binding,[2],binds
same,binding,[3],binds
same,binding,[4],binds

# From PMC4109901, “Functional EF-Hands in Neuronal Calcium Sensor GCAP2 Determine Its Phosphorylation State and Subcellular Distribution In Vivo, and Are Essential for Photoreceptor Cell Integrity” (PLoS Genetics, 2014)
